# Source: paper PMC8741842
# Amino acid sequences for entries named in this document (tags omitted). Residues count along the entry.
# UniProt Q8R0I0, residues 18-805: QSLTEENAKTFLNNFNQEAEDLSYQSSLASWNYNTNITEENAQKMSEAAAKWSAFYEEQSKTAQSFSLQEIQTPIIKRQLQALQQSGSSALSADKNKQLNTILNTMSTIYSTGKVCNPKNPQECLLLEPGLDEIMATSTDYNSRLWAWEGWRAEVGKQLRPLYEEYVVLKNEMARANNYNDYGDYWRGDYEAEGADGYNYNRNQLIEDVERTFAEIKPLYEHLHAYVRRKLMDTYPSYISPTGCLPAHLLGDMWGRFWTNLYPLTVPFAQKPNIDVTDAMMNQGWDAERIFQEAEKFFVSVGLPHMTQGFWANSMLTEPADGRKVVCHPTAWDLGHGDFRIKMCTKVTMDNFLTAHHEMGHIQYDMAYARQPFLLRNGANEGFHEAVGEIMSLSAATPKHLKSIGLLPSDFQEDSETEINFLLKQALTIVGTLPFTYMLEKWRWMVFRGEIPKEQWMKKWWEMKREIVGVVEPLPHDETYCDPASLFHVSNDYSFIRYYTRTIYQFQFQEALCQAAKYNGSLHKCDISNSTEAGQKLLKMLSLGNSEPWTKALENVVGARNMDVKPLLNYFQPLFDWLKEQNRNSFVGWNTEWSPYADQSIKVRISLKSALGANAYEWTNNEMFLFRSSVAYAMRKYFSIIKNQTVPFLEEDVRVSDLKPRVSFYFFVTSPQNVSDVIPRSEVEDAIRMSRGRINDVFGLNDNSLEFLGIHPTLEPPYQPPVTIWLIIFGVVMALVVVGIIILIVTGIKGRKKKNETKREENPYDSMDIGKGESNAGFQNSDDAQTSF
# Results are given in words; binding and its absence hold for the method and conditions named. Binding seen in cells or lysates may run through a third protein. Some entries that bind do so weakly or less than the wild type.
# T1: caveolin-1 (mouse (endogenous in myocardial tissue)) (UniProt P49817)
# T1 sequence: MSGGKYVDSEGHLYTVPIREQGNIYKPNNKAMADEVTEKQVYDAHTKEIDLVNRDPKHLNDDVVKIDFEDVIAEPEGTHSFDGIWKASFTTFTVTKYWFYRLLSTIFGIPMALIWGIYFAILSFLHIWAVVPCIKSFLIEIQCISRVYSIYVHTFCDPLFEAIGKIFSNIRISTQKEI
# Key:
# [1] = target: T1, caveolin-1 (mouse (endogenous in myocardial tissue)); assay: co-IP; mouse myocardial tissue lysed in RIPA buffer; supernatant with primary antibody or control IgG and protein A/G agarose beads overnight at 4°C; beads washed 3 times with PBS; Western blot of the IP product; both directions
# [2] = target: angiotensin-converting enzyme 2 (mouse (endogenous in myocardial tissue)) (UniProt Q8R0I0); assay: as above
binding [1],binding [2],Molecule
binds,,angiotensin-converting enzyme 2 (from UniProt Q8R0I0 18-805)
,binds,"caveolin-1 (protein, UniProt P49817 1-178) MSGGKYVDSEGHLYTVPIREQGNIYKPNNKAMADEVTEKQVYDAHTKEIDLVNRDPKHLNDDVVKIDFEDVIAEPEGTHSFDGIWKASFTTFTVTKYWFYRLLSTIFGIPMALIWGIYFAILSFLHIWAVVPCIKSFLIEIQCISRVYSIYVHTFCDPLFEAIGKIFSNIRISTQKEI"
